Some results were stated once for a whole list of compounds, not compound by compound. For part of these data: For at least one compound, name, drawing or mass did not settle the structure.
Assays:
[1] = test system: adult Nippostrongylus brasiliensis; assay: Nippostrongylus brasiliensis in-vitro
[2] = test system: Trichinella spiralis larvae; assay: Trichinella spiralis in-vitro; conditions: 10 ppm, 5 days at 19° C.
Method: Trichinella spiralis In-vitro
Trichinella spiralis larvae are isolated from skeletal muscles and subcutaneous muscles of SPF/CFW1 mice and collected in aqueous 0.9% NaCl containing 20 μg of sisomycin/ml. Per determination, 20 larvae are incubated in 2 ml of a nutrient solution (20 g of Bacto Casitone/l, 10 g of yeast extract/l, 5 g of glucose/l, 0.8 g of KH2PO4/l, 0.8 g of K2HPO4; […] of sisomycin/ml and 1 μg of Canesten/ml; pH=7.2).
The incubation and the determination have been described in Martin et al., Pesticide Science (1996) 48, 343-349. 10 mg of the test compound are dissolved in 0.5 ml of the stated solvent, and such an amount of the resulting solution is added to the incubation medium that the desired concentration is reached. The controls contain only the solvent.
After an incubation time of 5 days at a temperature of 19° C., the experiment is terminated. The anthelmintic activity of a substance is categorized into 4 stages. 0 means no activity, 1 means weak activity, 2 means good activity and 3 means full activity (<50%, 50-75%, >75%, 100% of the larvae dead).

| Compound | activity class (acetylcholinesterase enzyme inhibition) ([1]; 10 ppm) | anthelmintic activity class (larvae dead) [2] | activity class (acetylcholinesterase enzyme inhibition) ([1]; 100 ppm) |
| --- | --- | --- | --- |
| CSc1nnc(SCCCCC(F)=C(F)F)s1 [Example 5] | good activity (2 means good activity) | good activity (2 means good activity) |  |
| FC(F)=CCCCCSc1nnc(-c2ccc(C(F)(F)F)cc2)o1 [Example 2] |  |  | weak activity (1 means weak activity) |
| CC(C)CCSc1nnc(SCCCCC=C(F)F)s1 [Example 12] | weak activity (1 means weak activity) |  | good activity (2 means good activity) |
| FC(F)=C(F)CCCCSc1nnc(SCCCCC(F)=C(F)F)s1 [Example 21] |  |  | weak activity (1 means weak activity) |
